# PubChem BioAssay AID743121 – NCATS – 2013
# Aim: 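Genes whose silencing strengthens cell killing by camptothecin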 (primary screen)
# Cell system: MDA-MB-231 cells, a human breast cancer line
# Reagent: single siRNA against human genes, 20 nM siRNA (0.8 pmol per well)
# Timing: 120 h (drug added 48 h after transfection, read 72 h later)
# Treatment: camptothecin 20 nM (about EC30) for 72 h; vehicle 0.1% DMSO in parallel plates
# Measured: 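Cell viability by ATP luminescence (CellTiter-Glo) as % of non-targeting siRNA wells, and the log2 ratio of viability without drug over viability with camptothecin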
# Reading the numbers: log2 vehicle/camptothecin viability: higher = stronger sensitisation to camptothecin; viability with camptothecin: higher = more viable cells
# Call rule: 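Each gene scored by redundant siRNA activity (RSA) over its individual siRNA ratios; a gene is called active at p < 0.001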
# Shown is one part, drawn at random, of about 26,000 reagents tested. 167 of them (0.63%) were called active. 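Calls are per gene from RSA p-values that are not deposited; an individual active-marked siRNA can sensitise only weakly.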 Entries without a mark were called inactive. Reagents against one gene are numbered here. Further read-outs or replicates are left out here. No sequences are given here.
gene,siRNA no.,log2 vehicle/camptothecin viability,viability with camptothecin (% of control)
SH3BP2 (SH3 domain binding protein 2),1,-0.228,69.4
SH3BP2 (SH3 domain binding protein 2),2,0.583,49.2
SH3BP2 (SH3 domain binding protein 2),3,-0.306,102
HES5 (hes family bHLH transcription factor 5),1,-0.0239,46.2
HES5 (hes family bHLH transcription factor 5),2,-0.0955,84.2
HES5 (hes family bHLH transcription factor 5),3,-0.45,97.3
ASB13 (ankyrin repeat and SOCS box containing 13),1,-0.378,144
ASB13 (ankyrin repeat and SOCS box containing 13),2,-0.124,101
ASB13 (ankyrin repeat and SOCS box containing 13),3,-0.963,73.9
ASB13 (ankyrin repeat and SOCS box containing 13),4,0.0907,87.6
GRIA4 (glutamate ionotropic receptor AMPA type subunit 4),1,0.0587,35.2
GRIA4 (glutamate ionotropic receptor AMPA type subunit 4),2,-0.0337,87.3
GRIA4 (glutamate ionotropic receptor AMPA type subunit 4),3,0.456,38.1
ID1 (inhibitor of DNA binding 1),1,-0.647,62.3
ID1 (inhibitor of DNA binding 1),2,-0.157,96
ID1 (inhibitor of DNA binding 1),3,-0.564,73.1
RDH8 (retinol dehydrogenase 8),1,0.409,4.15
RDH8 (retinol dehydrogenase 8),2,-0.0855,111
RDH8 (retinol dehydrogenase 8),3,-0.296,49
TFF2 (trefoil factor 2),1,0.0221,85.5
TFF2 (trefoil factor 2),2,-0.162,81.9
TFF2 (trefoil factor 2),3,-0.11,59.7
TFF2 (trefoil factor 2),4,-0.239,108
OR51E2 (olfactory receptor family 51 subfamily E member 2),1,-0.488,73.5
OR51E2 (olfactory receptor family 51 subfamily E member 2),2,-0.0022,93.1
OR51E2 (olfactory receptor family 51 subfamily E member 2),3,-0.155,101
DPP6 (dipeptidyl peptidase like 6),1,-0.457,90
DPP6 (dipeptidyl peptidase like 6),2,-0.386,75.8
DPP6 (dipeptidyl peptidase like 6),3,-0.608,102
DPP6 (dipeptidyl peptidase like 6),4,-0.0534,95.6
GPR12 (G protein-coupled receptor 12),1,0.0777,76.1
GPR12 (G protein-coupled receptor 12),2,-0.388,88.8
GPR12 (G protein-coupled receptor 12),3,-0.2,35.6
GPR12 (G protein-coupled receptor 12),4,-0.452,57.1
TXNDC16 (thioredoxin domain containing 16),1,-0.0981,71.2
TXNDC16 (thioredoxin domain containing 16),2,-0.172,122
TXNDC16 (thioredoxin domain containing 16),3,-0.217,86.7
TXNDC16 (thioredoxin domain containing 16),4,-0.126,40.8
IRF3 (interferon regulatory factor 3),1,-0.15,45.5
IRF3 (interferon regulatory factor 3),2,0.316,48.8
IRF3 (interferon regulatory factor 3),3,-0.165,94.3
IRF3 (interferon regulatory factor 3),4,0.215,35.6
MAPK8 (mitogen-activated protein kinase 8),1,-0.194,80.9
MAPK8 (mitogen-activated protein kinase 8),2,-0.564,103
MAPK8 (mitogen-activated protein kinase 8),3,-0.208,95
MAPK8 (mitogen-activated protein kinase 8),4,-0.225,104
XPR1 (xenotropic and polytropic retrovirus receptor 1),1,-0.141,82.8
XPR1 (xenotropic and polytropic retrovirus receptor 1),2,0.0709,63.2
XPR1 (xenotropic and polytropic retrovirus receptor 1),3,0.156,60
XPR1 (xenotropic and polytropic retrovirus receptor 1),4,-0.562,87
RPA3 (replication protein A3),1,-0.0883,60.1
RPA3 (replication protein A3),2,-0.132,88.8
RPA3 (replication protein A3),3,-0.182,19.5
PI4K2B (phosphatidylinositol 4-kinase type 2 beta),1,-0.207,66.5
PI4K2B (phosphatidylinositol 4-kinase type 2 beta),2,-0.558,82.7
PI4K2B (phosphatidylinositol 4-kinase type 2 beta),3,0.268,42.2
PI4K2B (phosphatidylinositol 4-kinase type 2 beta),4,0.281,55.6
MEN1 (menin 1),1,-0.458,118
MEN1 (menin 1),2,-0.276,85.3
MEN1 (menin 1),3,-0.134,73.8
MEN1 (menin 1),4,0.332,74
SCPEP1 (serine carboxypeptidase 1),1,-0.31,108
SCPEP1 (serine carboxypeptidase 1),2,-0.0444,108
SCPEP1 (serine carboxypeptidase 1),3,0.254,85.9
SCPEP1 (serine carboxypeptidase 1),4,-0.267,71
OPHN1 (oligophrenin 1),1,-0.0928,58.1
OPHN1 (oligophrenin 1),2,0.0358,90.9
INPP5E (inositol polyphosphate-5-phosphatase E),1,-0.515,94.5
INPP5E (inositol polyphosphate-5-phosphatase E),2,0.0651,14.7
INPP5E (inositol polyphosphate-5-phosphatase E),3,-0.113,106
INPP5E (inositol polyphosphate-5-phosphatase E),4,-0.338,21

Records above whose target name starts with S or s:
gene,siRNA no.,log2 vehicle/camptothecin viability,viability with camptothecin (% of control)
SH3BP2 (SH3 domain binding protein 2),1,-0.228,69.4
SH3BP2 (SH3 domain binding protein 2),2,0.583,49.2
SH3BP2 (SH3 domain binding protein 2),3,-0.306,102
SCPEP1 (serine carboxypeptidase 1),1,-0.31,108
SCPEP1 (serine carboxypeptidase 1),2,-0.0444,108
SCPEP1 (serine carboxypeptidase 1),3,0.254,85.9
SCPEP1 (serine carboxypeptidase 1),4,-0.267,71
